From publication PMC4153671
Results are given in words; binding and its absence hold for the method and conditions named. Binding seen in cells or lysates may run through a third protein. Some results given as binding are weak or reduced against the parent protein; the word gives no strength.

Sequences of proteins named here, by UniProt entry; tags and fusion partners are left off.
UniProt P17918: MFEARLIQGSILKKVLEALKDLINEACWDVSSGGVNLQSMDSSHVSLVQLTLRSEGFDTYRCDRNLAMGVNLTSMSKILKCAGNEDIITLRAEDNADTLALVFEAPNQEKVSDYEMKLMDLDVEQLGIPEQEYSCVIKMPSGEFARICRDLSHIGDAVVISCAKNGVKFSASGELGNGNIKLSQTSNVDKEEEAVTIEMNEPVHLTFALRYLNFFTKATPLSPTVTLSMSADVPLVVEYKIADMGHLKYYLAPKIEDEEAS

What was measured:
[1] = target: Cdc45, endogenous in mouse cortical neurons (mouse (endogenous in cortical neurons)) (UniProt Q9Z1X9); test: co-IP; formaldehyde cross-linked, sonicated nucleoprotein (DNA/protein) fragments of neurons treated with 200 µM MPP^+ for 12 h; precipitated with anti-Cdc45, mouse anti-p49 or anti-DNA pol-β antibody
[2] = target: T1, p49 subunit of DNA primase, endogenous in mouse cortical neurons (mouse (endogenous in cortical neurons)) (UniProt P20664); test: as above
T1 sequence: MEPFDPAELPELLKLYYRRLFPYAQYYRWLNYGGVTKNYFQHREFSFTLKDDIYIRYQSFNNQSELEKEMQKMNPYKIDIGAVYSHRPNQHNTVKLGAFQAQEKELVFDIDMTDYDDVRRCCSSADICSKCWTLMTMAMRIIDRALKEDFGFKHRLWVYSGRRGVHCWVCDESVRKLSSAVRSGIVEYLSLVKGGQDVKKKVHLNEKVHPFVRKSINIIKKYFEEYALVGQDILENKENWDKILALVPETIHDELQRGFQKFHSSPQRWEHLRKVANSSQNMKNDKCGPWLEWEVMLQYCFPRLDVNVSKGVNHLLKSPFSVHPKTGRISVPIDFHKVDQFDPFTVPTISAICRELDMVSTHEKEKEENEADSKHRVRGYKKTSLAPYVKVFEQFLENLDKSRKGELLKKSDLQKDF

binding [1]: binds
binding [2]: binds
Substance: proliferating cell nuclear antigen (PCNA), endogenous in mouse cortical neurons (from UniProt P17918 1-261)
